PubChem BioAssay AID1259308 | NCATS – 2017

Aim: 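Candidate targets for better recombinant protein yield in mammalian cells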 (primary screen)
Cells: human HEK293 embryonic kidney cells stably expressing firefly luciferase (HEK-CMV-Luc2-Hygro)
Knock-down reagent: single siRNA against human genes, 0.8 pmol siRNA per well
Duration: 72 h
Measured: 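Reporter luminescence and viable-cell signal on separate replicate plates, given as percent of non-targeting control and median/MAD z-scores, plus per-cell luciferase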
Direction: total luciferase, z-score: higher = more reporter protein produced
Rule for the call: 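An siRNA counts as active if its total luciferase robust z-score exceeds 3; genes with two or more such siRNAs out of three were retested with fresh siRNAs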
Calls: active = raised luciferase; inactive = no rise
This is one part, drawn at random, of about 59,000 reagents tested. Over the whole deposit, about 1,510 (2.6%) got an active call. 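Calls use total luciferase alone and ignore viability, so some active siRNAs may act by altering cell number.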 Not all columns of the deposit are shown. No sequences are given here.

BMP3 [SID160728216] showed total luciferase, z-score 0.276; inactive.
BMP3 [SID160728227] gave total luciferase, z-score 2.11; inactive.
Silencing of BMP3 [SID160728238] resulted in: total luciferase, z-score -0.197; inactive.
Against SUSD2 [SID160731552], the values are total luciferase, z-score 3.7; active.
SUSD2 [SID160744948] gave total luciferase, z-score 1.61; inactive.
SUSD2 [SID160744949] scored total luciferase, z-score -0.315; inactive.
PNMT [SID160714571] showed total luciferase, z-score 0.409; inactive.
Depletion of PNMT [SID160714572] resulted in: total luciferase, z-score 2.34; inactive.
Silencing of PNMT [SID160731445] came out at: total luciferase, z-score 0.131; inactive.
Knock-down of FBXO32 [SID160755100] gave: total luciferase, z-score -0.89; inactive.
Against FBXO32 [SID160755101] the deposit lists total luciferase, z-score 0.463; inactive.
FBXO32 [SID160755102] showed total luciferase, z-score -0.422; inactive.
Knock-down of C22orf15 [SID160758932] came out at: total luciferase, z-score 1.92; inactive.
For C22orf15 [SID160758933] the deposit lists total luciferase, z-score 2.74; inactive.
After knock-down of C22orf15 [SID160758934] the results were total luciferase, z-score 0.265; inactive.
OXR1 [SID160742875] scored total luciferase, z-score -0.874; inactive.
For OXR1 [SID160742876], the values are total luciferase, z-score 0.975; inactive.
Silencing of OXR1 [SID160742877] resulted in: total luciferase, z-score 1.77; inactive.
For SYT10 [SID160764542], the entry reads total luciferase, z-score 1.87; inactive.
Knock-down of SYT10 [SID160764543] came out at: total luciferase, z-score -0.342; inactive.
Depletion of SYT10 [SID160764544] resulted in: total luciferase, z-score 0.217; inactive.
After knock-down of HULC [SID160772000] the results were total luciferase, z-score -0.0456; inactive.
Silencing of HULC [SID160772002] gave: total luciferase, z-score -1.17; inactive.
Against HULC [SID160772003], the entry reads total luciferase, z-score -1.3; inactive.
Silencing of MACC1 [SID160764898] gave: total luciferase, z-score -2.3; inactive.
With knock-down of MACC1 [SID160764899], the screen gave total luciferase, z-score -0.886; inactive.
Depletion of MACC1 [SID160764900] gave: total luciferase, z-score 0.819; inactive.
With knock-down of PGLYRP2 [SID160754947], the screen gave total luciferase, z-score -0.881; inactive.
Against PGLYRP2 [SID160754948], the values are total luciferase, z-score -0.22; inactive.
With knock-down of PGLYRP2 [SID160754949], the screen gave total luciferase, z-score -1.53; inactive.
INHBE [SID160751361] showed total luciferase, z-score 1.27; inactive.
INHBE [SID160751362] gave total luciferase, z-score 0.547; inactive.
Depletion of INHBE [SID160751363] resulted in: total luciferase, z-score -2.07; inactive.
Depletion of SLC66A1 [SID160742438] gave: total luciferase, z-score 0.75; inactive.
Knock-down of SLC66A1 [SID160742439] gave: total luciferase, z-score 2.79; inactive.
Against SLC66A1 [SID160742440], the entry reads total luciferase, z-score -0.126; inactive.
LINC01915 [SID160773311] gave total luciferase, z-score -0.0743; inactive.
Silencing of LINC01915 [SID160773312] came out at: total luciferase, z-score 0.693; inactive.
Silencing of LINC01915 [SID160773313] came out at: total luciferase, z-score -0.387; inactive.
For PPP1CA [SID160714755], the entry reads total luciferase, z-score -0.233; inactive.
With knock-down of PPP1CA [SID160714756] the results were total luciferase, z-score 2.98; inactive.
For PPP1CA [SID160714757] the deposit lists total luciferase, z-score -1.68; inactive.

Looked up above.
Under “total luciferase, z-score”, PNMT [SID160731445] shows 0.131
HULC [SID160772000], Call → inactive
